# Data from PubChem BioAssay AID1487 (National Center for Advancing Translational Sciences (NCATS), 2009).
# Several values for one entry are separate records, joined by “and”; a condition that tells them apart may be missing. Identical values can stand only once. The list shows a part of the results. Further columns of the screen follow, without active or inactive calls. The list favours compounds with an active or inconclusive main result. The note in brackets gives the kind of curve behind each potency; many fits are weak.
# Test: qHTS Assay for Modulators of Lamin A Splicing
# Conditions: HeLa LMNA splicing GFP/RFP minigene ratio, 48 h
# Procedure, shortened: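 Read-out is the ratio of GFP to DsRed2 object intensity, acquired by 488 nm laser-scanning cytometry on HeLa lamin A-EGFP minigene reporter cells. Compound incubation 48 hrs at 37 °C in Opti-MEM with 2% FBS; DMSO 0.5% final.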
# [1] = measured here: RFP viability control channel
# [2] = measured here: GFP splicing reporter channel
SMILES,AC50 [1],AC50 [2]
O=C(Nc1ccccc1N1CCOCC1)c1ccccc1NS(=O)(=O)c1ccc(F)c(F)c1,"31.6 µM [rising, single point]",
Cc1ccc(C(C(=O)NC2CCCC2)N(Cc2ccc(F)cc2)C(=O)c2csnn2)o1 (stereo unspecified),"15.8 µM [rising, single point]","17.8 µM [rising, single point]"
COc1ccc(OC)c(S(=O)(=O)N2CCC(C(=O)N3CCOCC3)CC2)c1,"0.0316 µM [falling, full curve, poor fit]",
Cc1ccc(C2CC2C(=O)NNC(=S)Nc2ccc(Cl)cc2)cc1 (stereo unspecified),"14.1 µM [rising, single point]",
CCOC(=O)c1cccc(NS(=O)(=O)c2cc(-c3cnc(C4CC4)o3)ccc2C)c1,"7.08 µM [falling, partial curve]","7.94 µM [falling, partial curve]"
CC1CC(=O)C2=C(C1)Nc1ccccc1SC2c1ccc(F)cc1 (stereo unspecified),"17.8 µM [rising, partial curve]","8.91 µM [rising, partial curve]"
CCC(=O)NNC(=O)CCC(=O)Nc1ccc(C)cc1C,"0.0631 µM [falling, full curve, poor fit]","0.0631 µM [falling, full curve]"
O=C(c1ccc(Cl)cc1)c1c[nH]c(C(=O)NNc2ccccc2)c1,"0.141 µM [rising, full curve]",
CCC(c1nnnn1Cc1cccs1)N1CCN(c2nc3ccccc3s2)CC1 (stereo unspecified),"28.2 µM [rising, single point]","14.1 µM [rising, single point]"
O=C(Nc1ccc2c(c1)CCCN2C(=O)c1cccs1)c1ccccc1,,"35.5 µM [falling, single point]"
COc1cc(-c2nnc(-c3ccncc3)o2)ccc1OCc1ccccc1,"14.1 µM [rising, partial curve, poor fit]","20 µM [rising, single point]"
COc1cc(S(=O)(=O)N2CCN(c3ccccc3F)CC2)ccc1Cl,"31.6 µM [rising, single point]",
COc1ccc(Cl)cc1NC(=O)COC(=O)C(CC(C)C)N1C(=O)C2CC=CCC2C1=O (stereo unspecified),"0.0178 µM [rising, full curve, poor fit]",
O=C(NNC(=S)Nc1ccc(OC(F)F)cc1)c1cc2c(s1)CCCC2,"15.8 µM [rising, single point]",
CCC1CCc2c([nH]c3ccccc3c2=O)O1 (stereo unspecified),"35.5 µM [rising, single point]","11.2 µM [rising, partial curve, poor fit]"
Cc1c(C(=O)C(=O)N2c3ccc(F)cc3CCC2C)c2ccccc2n1C (stereo unspecified),"5.62 µM [rising, single point]",
Cc1nc(N2CCCC2)c2c(C(=O)Nc3cccc(Cl)c3)c(C)oc2n1,"35.5 µM [falling, single point]",
CCOc1ccc(NC(=O)Cn2ccn3nc(-c4ccc(OC)c(OC)c4)cc3c2=O)cc1,"0.00355 µM [falling, full curve, poor fit]",
Cc1cc(C)cc(NC(=O)Nc2ccc3nc(N4CCN(C)CC4)cc(C)c3c2)c1,"0.0355 µM [falling, full curve, poor fit]","35.5 µM [falling, partial curve, poor fit]"
COC(=O)C1CCN(C(c2cccs2)c2sc3nc(C)nn3c2O)CC1 (stereo unspecified),"35.5 µM [falling, single point]","35.5 µM [falling, single point]"
COc1ccc(COC(=O)c2n[nH]c3ccccc23)cc1F,"15.8 µM [rising, partial curve]",
COc1ccc(NC(=O)COC(=O)c2c3c(nc4ccccc24)CCCC3)cc1Cl,"11.2 µM [rising, partial curve]","20 µM [rising, partial curve, poor fit]"
NC(=O)c1nsc(C(=O)N(CC(=O)NCc2ccc3c(c2)OCO3)C2CCCCC2)c1N,,"0.0251 µM [falling, full curve, poor fit]"
O=C(CSc1cnc2ccccc2n1)c1ccc(F)cc1,"17.8 µM [rising, single point]","12.6 µM [rising, partial curve]"
O=C(COc1ccc(F)cc1)NCC(c1ccc(Cl)cc1)N1CCCCC1 (stereo unspecified),"1.12 µM [falling, partial curve]","22.4 µM [falling, single point]"
COc1cccc(C(=O)NC2CCN(C(=O)N3c4ccccc4Sc4ccccc43)CC2)c1,"11.2 µM [rising, partial curve]","14.1 µM [rising, partial curve, poor fit]"
CC1(C)Cc2c(C#N)c(SCCOc3ccccc3)nc(N3CCOCC3)c2CO1,"31.6 µM [rising, single point]",

SMILES,AC50 [1],AC50 [2]
CCc1ccc2[nH]c(=O)c(C(c3nnnn3CCOC)N3CCN(c4ccccc4F)CC3)cc2c1 (stereo unspecified),,"25.1 µM [falling, single point]"
O=c1cc(-c2ccc([N+](=O)[O-])cc2)c2ccc(O)cc2o1,"0.562 µM [falling, full curve, poor fit]","5.01 µM [falling, full curve, poor fit]"
O=C(O)c1ccc(OCCn2ccnc2)cc1,"3.55 µM [falling, partial curve]","0.00794 µM [falling, full curve, poor fit]"
COc1cc(OC)c(-c2cc(C(=O)NCc3ccc(F)cc3)c3c(-c4ccccc4)[nH]nc3n2)cc1OC,"5.62 µM [falling, partial curve]","1.26 µM [falling, partial curve]"
CCCn1c2c(c(O)c(C(=O)Nc3nccs3)c1=O)CCCC2,"22.4 µM [rising, partial curve, poor fit]",
Cc1nnc(SCC(=O)N2CCN(c3ccccc3)CC2)n(N)c1=O,"6.31 µM [falling, single point]","5.62 µM [falling, single point]"
CCCCN(CCCC)CCC(O)c1cc2c(Cl)cc(Cl)cc2c2cc(C(F)(F)F)ccc12 (stereo unspecified),"7.08 µM [falling, partial curve, poor fit]",
C#C[C@]1(O)CC[C@H]2[C@@H]3CCc4cc(O)ccc4[C@H]3CC[C@@]21C,"20 µM [falling, single point]","4.47 µM [rising, partial curve, poor fit] and 6.31 µM [falling, single point]"
COc1cc(OC)cc(C(=O)NC2CCN(Cc3nnnn3Cc3ccc(F)cc3)CC2)c1,"1.41 µM [falling, partial curve, poor fit]",
Cc1ccc(S(=O)(=O)Nc2cc(C(C)C)c(O)cc2C)cc1,"11.2 µM [rising, partial curve]","12.6 µM [rising, partial curve]"
CC(C)CCNC(=O)c1cc(-c2ccncc2)nc2ccc(S(=O)(=O)N3CCOCC3)cc12,"0.0316 µM [falling, full curve, poor fit]",
Cc1ccc(F)cc1NC(=O)c1cccc2nccnc12,"0.891 µM [rising, full curve]",
Cc1nn(C)c(C)c1S(=O)(=O)N1CCc2ccccc21,,"35.5 µM [rising, single point]"
Cc1ccc(-c2nnc(SCC(=O)N3CCOCC3)nc2-c2ccc(C)cc2)cc1,"1.12 µM [falling, full curve]",
CCc1ccc(-c2nn(-c3ccccc3)cc2C2SCC(=O)N2Cc2ccco2)cc1 (stereo unspecified),"31.6 µM [rising, single point]",
O=C(NCc1ccc(Cl)cc1)c1ccccc1CCc1ccccc1,"5.62 µM [rising, partial curve, poor fit]",
Oc1cccc(/C=N/Nc2cccc3cccnc23)c1,"3.16 µM [falling, partial curve, poor fit]","3.16 µM [falling, single point]"
COC(=O)[C@H](C)NC(=O)Nc1cc(Cl)ccc1C,"2.51 µM [falling, full curve]","2.51 µM [falling, full curve]"
CCN(CC)S(=O)(=O)c1cc(C(=O)Nc2cccnc2Cl)ccc1Cl,"0.0562 µM [falling, partial curve]",
COc1ccccc1NC(=O)c1cnc2c(-c3ccccc3)c(C)nn2c1C,"5.01 µM [falling, partial curve, poor fit]","35.5 µM [falling, partial curve]"
O=C(/C=C/c1ccccc1)Nc1scc(-c2ccccc2)c1C(=O)O,"0.0178 µM [falling, full curve, poor fit]","0.02 µM [falling, full curve, poor fit]"
CO/N=C\C(=N\Nc1ccc(OC)cc1)C(=O)c1ccccc1,"31.6 µM [rising, single point]",
N#Cc1cccc(N=Cc2c(O)ccc3ccccc23)c1,"12.6 µM [rising, single point]",
CCOc1ccc(CN2CCc3nc(Nc4ccc5c(c4)OCCO5)ncc3C2)cc1,,"35.5 µM [falling, single point]"
CC(NC(=O)C1CCC(C(C)(C)C)CC1)C(c1ccccc1)N1CCOCC1 (stereo unspecified),,"44.7 µM [falling, partial curve, poor fit]"
O=c1[nH]c(SCc2ccc(Cl)cc2)nc2c1CCC2,"14.1 µM [rising, single point]",
